Results taken from publication PMC3405102, “Solution Structure of the LIM-Homeodomain Transcription Factor Complex Lhx3/Ldb1 and the Effects of a Pituitary Mutation on Key Lhx3 Interactions” (PLoS ONE, 2012).
Results are given in words; binding and its absence hold for the method and conditions named.

The chains behind the UniProt entries cited, without tags or fusion partners. Where a name states a change or a piece, a line headed by the entry shows the natural chain unless it says otherwise.
UniProt P50481: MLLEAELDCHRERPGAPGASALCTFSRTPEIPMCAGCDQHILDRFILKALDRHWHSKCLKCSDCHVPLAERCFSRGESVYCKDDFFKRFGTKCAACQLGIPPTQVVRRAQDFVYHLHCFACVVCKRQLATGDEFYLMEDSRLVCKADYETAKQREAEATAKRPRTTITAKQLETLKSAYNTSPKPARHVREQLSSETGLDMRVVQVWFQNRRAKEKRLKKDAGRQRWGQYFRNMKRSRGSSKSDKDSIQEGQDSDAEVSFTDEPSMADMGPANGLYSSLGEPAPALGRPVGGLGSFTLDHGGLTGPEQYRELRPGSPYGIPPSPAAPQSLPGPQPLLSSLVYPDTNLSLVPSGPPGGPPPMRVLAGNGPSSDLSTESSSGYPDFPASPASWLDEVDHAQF

Target: Ldb1-Lhx3 tethered complex (mouse) (UniProt P70662+P50481)
Test: SAXS; Ldb1-Lhx3 tethered complex at 4.5 mg mL^-1 in 20 mM Na2HPO4, 40 mM NaCl, 1 mM DTT, pH 6.8, 283 K; mass from I(0), Guinier analysis, DAMMIF and BUNCH modelling; both purified

B1: Ldb1-Lhx3 tethered complex (protein, UniProt P70662-3 300-339; P50481-1 28-153)
chain: DVMVVGEPTLMGGEFGDEDERLITRLENTQFDAANGIDDEGGSGGHMGSGGTPEIPMCAGCDQHILDRFILKALDRHWHSKCLKCSDCHVPLAERCFSRGESVYCKDDFFKRFGTKCAACQLGIPPTQVVRRAQDFVYHLHCFACVVCKRQLATGDEFYLMEDSRLVCKADYETAKQ
binding: no binding (tested: 4.5 mg mL^-1)
